Results reported in publication PMC7819943, “Rice protein-binding microarrays: a tool to detect cis-acting elements near promoter regions in rice”.
The other results are listed elsewhere or left out.

By UniProt entry, the sequences of proteins in these tests, tags left out.
UniProt Q0JBA9, entry or part of it: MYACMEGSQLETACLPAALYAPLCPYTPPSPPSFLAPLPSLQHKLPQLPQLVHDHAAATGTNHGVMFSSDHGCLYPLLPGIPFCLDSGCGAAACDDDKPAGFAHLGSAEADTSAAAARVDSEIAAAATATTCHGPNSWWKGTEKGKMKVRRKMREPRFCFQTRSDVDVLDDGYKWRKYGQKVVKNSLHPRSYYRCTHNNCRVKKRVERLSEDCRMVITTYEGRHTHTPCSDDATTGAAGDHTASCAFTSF

Target: OsWRKY34 (Oryza sativa, UniProt Q0JBA9 1-250)
Test: protein-binding microarray (RPBM); PBS, 2% BSA, 51.3 ng/ul salmon testes DNA, 50 uM zinc acetate, 200 nM TF, 25 C, 1 h; high values mean tight binding
Settings: protein: recombinant; tags: N-terminal polyhistidine and DsRed monomer fusion (pET32a); label: CyDye5-dUTP incorporated in the synthesized complementary strand; 3' TTTTT single-stranded linker to array surface; dsDNA, one strand shown
How it was run: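 The binding signal is fluorescence intensity per array feature (arbitrary units). Readings came from an Axon 4000B scanner after a washed, 2% BSA-blocked, double-stranded custom Agilent array had been incubated for 1 h at 25 °C with 200 nM protein and 50 µM zinc acetate. The protein was a Ni–NTA-purified transcription factor fused N-terminally to polyhistidine and DsRed, expressed in E. coli BL21-CodonPlus.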

First: CACCGGTGCTCCCACGCAGATCGCGCCTCTCCTGCAGCTCCGGAGTCACCTAGTGCAG
Second: AAAGGCTTACGTACTAACTTTTTCTTATTAAATTCTTATTCGGAGTCACCTAGTGCAG
The binding signal of the first is lower: 8170 fluorescence intensity (a.u.) for the first, 8460 fluorescence intensity (a.u.) for the second.

First: ATCTACTACTATTCTACTCTACTCGCAAGTCTCACAAACACGGAGTCACCTAGTGCAG
Second: TTTACTCCCAATTCATCTATAAATATTCCGTCTGTATTTTCGGAGTCACCTAGTGCAG
The binding signal of the first is lower: 8740 fluorescence intensity (a.u.) for the first, 10200 fluorescence intensity (a.u.) for the second.

Going from “ATTCGCCTTTATAACCGTAAGGCCTTTTTCCTTTTCTGAACGGAGTCACCTAGTGCAG” to “GACATTATTCTAATATCTTATGTTTTTTAGTTTTGTTCTACGGAGTCACCTAGTGCAG”, the binding signal rises from 9040 fluorescence intensity (a.u.) to 9350 fluorescence intensity (a.u.).

First: TAGCCGTTTTTTTTTTCTTACTTATCGCTTTCTCCTCGTTCGGAGTCACCTAGTGCAG
Second: GATCGTCTCTTTTTCTTTCTTTCTTTCCTTCCTCCACAACCGGAGTCACCTAGTGCAG
The binding signal of the first is higher: 10000 fluorescence intensity (a.u.) for the first, 8040 fluorescence intensity (a.u.) for the second.

Going from “GTCACGGTCTCTGTCACCTCATTAACTTGCTCCCTACACCCGGAGTCACCTAGTGCAG” to “CCTCGTTCAGTCGTTCCTGCGAGCCCTACCGTGTGCTCACCGGAGTCACCTAGTGCAG”, the binding signal falls from 12800 fluorescence intensity (a.u.) to 11600 fluorescence intensity (a.u.).

Going from “AGGCTACGTCCTATATATATATTCACCTGCTTTAATTTGCCGGAGTCACCTAGTGCAG” to “CGTACTCTCACCAAACTCGGCCTGCGCCAGGCGCCAGACACGGAGTCACCTAGTGCAG”, the binding signal falls from 9280 fluorescence intensity (a.u.) to 8850 fluorescence intensity (a.u.).

Compared with “CCGGCCACCGACCACCGCCCCTGCGTTCCCGCTCTTCTCTCGGAGTCACCTAGTGCAG”, “CCCTCTGATCCTAACTGTAATATGTTTGAAGCTTGCAAATCGGAGTCACCTAGTGCAG” is lower in binding signal: 10200 fluorescence intensity (a.u.) for the first, 9760 fluorescence intensity (a.u.) for the second.

Going from “ACAAACCGGGGCGGGCGGGGCATCCACAACCAACCAACTCCGGAGTCACCTAGTGCAG” to “TTCATCGTTATCCTAATCTGATTTCAATTCAAAATTGTTCCGGAGTCACCTAGTGCAG”, the binding signal falls from 11200 fluorescence intensity (a.u.) to 8030 fluorescence intensity (a.u.).

Compared with “ACACTCTCTGATCCCGCTCTCTCTCTCTGCTTCGATTCGACGGAGTCACCTAGTGCAG”, “TGATGGCGCTGCCGAACCTCCGGTACTTCATTGACGCGACCGGAGTCACCTAGTGCAG” is lower in binding signal: 11300 fluorescence intensity (a.u.) for the first, 8090 fluorescence intensity (a.u.) for the second.

Going from “GTACTCCCTCCGTTTCGAAATATTTAACACCGTTGACTTTCGGAGTCACCTAGTGCAG” to “TGTTCTCTCCTGCCTCCACACTTTCTGGCACGGTACAAAACGGAGTCACCTAGTGCAG”, the binding signal falls from 17400 fluorescence intensity (a.u.) to 8370 fluorescence intensity (a.u.).

Compared with “CATTCACAACATCAAATTACATCTGCAGAGAGATCGCTCGCGGAGTCACCTAGTGCAG”, “CAAGAACTCACCCTTCTAGCTTCTGTTCGGCCCATCTGGACGGAGTCACCTAGTGCAG” is lower in binding signal: 33900 fluorescence intensity (a.u.) for the first, 9800 fluorescence intensity (a.u.) for the second.

First: TCCCGATCCTGTCGTTCAGGTGATCCCGTATTCAAGTCATCGGAGTCACCTAGTGCAG
Second: CCGTTGTATGTCACCAAAATTCGAATATATTTCCTTGCAACGGAGTCACCTAGTGCAG
The binding signal of the first is higher: 9150 fluorescence intensity (a.u.) for the first, 8670 fluorescence intensity (a.u.) for the second.

First: GGAACTGACCTACCGTAGACACCCTCTTGACCTGCCCGGTCGGAGTCACCTAGTGCAG
Second: TTCTCCCTACTTATATTATTCCCTCTAATTACATAACGTTCGGAGTCACCTAGTGCAG
The binding signal of the first is higher: 8950 fluorescence intensity (a.u.) for the first, 8630 fluorescence intensity (a.u.) for the second.

Going from “ACTTCCTTTGTTTCCTTAAGATAATCTGTAAATGCTCGTTCGGAGTCACCTAGTGCAG” to “TATCTTATTCGCGTAACTATTTTTTCCTCAGTTTGAAGGACGGAGTCACCTAGTGCAG”, the binding signal falls from 10200 fluorescence intensity (a.u.) to 8870 fluorescence intensity (a.u.).

Compared with “TTCTTTTTTCTTTTTTTTTACTGGTGAGAGCAATAGATTACGGAGTCACCTAGTGCAG”, “GGTTGTAGGTGGAGGAGGAGGAGGGGCGGTTCCGGAGTTTCGGAGTCACCTAGTGCAG” is higher in binding signal: 8560 fluorescence intensity (a.u.) for the first, 22600 fluorescence intensity (a.u.) for the second.

Compared with “CAAGCTCCGTTTCGTCTTCGTCTTCGTCTACCTCTGTCATCGGAGTCACCTAGTGCAG”, “CCAGCCGCATACACGCCGGTGTGCCCATTTTGTCAACGCGCGGAGTCACCTAGTGCAG” is lower in binding signal: 11100 fluorescence intensity (a.u.) for the first, 10200 fluorescence intensity (a.u.) for the second.

First: GGCTATACTATTAAACTTGCTCTACTACCATCCATTTATACGGAGTCACCTAGTGCAG
Second: AAATTTGACCGCTCTATTTATAGTTAAATTTGTTATTTTTCGGAGTCACCTAGTGCAG
The binding signal of the first is lower: 8850 fluorescence intensity (a.u.) for the first, 9220 fluorescence intensity (a.u.) for the second.

First: TCTGTCTATCTATCTATCTATCTATATATATATATATATACGGAGTCACCTAGTGCAG
Second: TTTCTGGTTGAGGGGTACAAATTAGATTCGTTTTACATTTCGGAGTCACCTAGTGCAG
The binding signal of the first is higher: 9350 fluorescence intensity (a.u.) for the first, 8380 fluorescence intensity (a.u.) for the second.

Going from “ACTACCACTAGGATTGTACACACTGTCATGTCCTGTGCACCGGAGTCACCTAGTGCAG” to “TATCAAGTGACCTAGCGTTCTTGCTGTCGGCTGCCTCATTCGGAGTCACCTAGTGCAG”, the binding signal rises from 8470 fluorescence intensity (a.u.) to 9460 fluorescence intensity (a.u.).

Compared with “AGTTTGTTCTTGAATATTTTTACACACATACCCATATTTCCGGAGTCACCTAGTGCAG”, “AATCCTAACTTCTATACCAATTTACCTACTAGTCGCCATGCGGAGTCACCTAGTGCAG” is lower in binding signal: 9750 fluorescence intensity (a.u.) for the first, 9470 fluorescence intensity (a.u.) for the second.

Going from “TCATTGCCTAGTTGCCTCTTGTCTCATCTCTCATCTCTCACGGAGTCACCTAGTGCAG” to “ACCAACGCCACCCGAAGCTTCGGCCCCTGTCTAAACTCCGCGGAGTCACCTAGTGCAG”, the binding signal rises from 8340 fluorescence intensity (a.u.) to 9610 fluorescence intensity (a.u.).
